Values from PubChem BioAssay AID1259308 (NCATS, 2017)
In all, the deposit lists about 59,000 reagents; this is an unselected part. Over the whole deposit, about 1,510 (2.6%) got an active call. 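Calls use total luciferase alone and ignore viability, so some active siRNAs may act by altering cell number.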 Reagents against one gene are numbered here.

Aim: 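Genes whose loss raises luciferase production in HEK293 cells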 (primary screen)
Cells: human HEK293 embryonic kidney cells stably expressing firefly luciferase (HEK-CMV-Luc2-Hygro)
Reagents: single siRNA against human genes, 0.8 pmol siRNA per well
Duration: 72 h
Read-out: 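Reporter luminescence and viable-cell signal on separate replicate plates, given as percent of non-targeting control and median/MAD z-scores, plus per-cell luciferase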
Reading the numbers: total luciferase, z-score and total luciferase, % of control: higher = more reporter protein produced; luciferase per cell, z-score: higher = more reporter output per viable cell; viable cells, % of control: higher = more viable cells
Hit rule: 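An siRNA counts as active if its total luciferase robust z-score exceeds 3; genes with two or more such siRNAs out of three were retested with fresh siRNAs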
Meaning of the calls: active = raised luciferase; inactive = no rise

no.	target gene	reagent	total luciferase, z-score	total luciferase, % of control	luciferase per cell, z-score	viable cells, % of control	call
1	DUXA	1	-1.17	58.5	1.03	49.9	inactive
2	DUXA	2	-2.51	31.9	-3.04	79.4	inactive
3	DUXA	3	1.13	104	1.75	73.5	inactive
4	IFTAP	1	-0.391	74.1	-0.589	96.7	inactive
5	IFTAP	2	0.915	100	1.86	68.5	inactive
6	IFTAP	3	3.65	155	2.02	101	active
7	LOC643339	1	0.196	85.8	0.199	91	inactive
8	LOC643339	2	-0.534	71.3	-0.43	89.2	inactive
9	LOC643339	3	0.0962	83.8	0.564	80.7	inactive
10	CARD6	1	-0.608	69.8	-0.73	94.5	inactive
11	CARD6	2	-0.672	68.5	-0.568	88.9	inactive
12	CARD6	3	-0.329	75.3	-0.276	90.5	inactive
13	CHMP4C	1	1.8	118	0.865	105	inactive
14	CHMP4C	2	1.43	110	2.08	71.3	inactive
15	CHMP4C	3	-1.72	47.7	1.19	38.9	inactive
16	SCAF8	1	-0.548	71	0.456	70.4	inactive
17	SCAF8	2	-0.331	75.3	-0.0876	86.1	inactive
18	SCAF8	3	1.72	116	1.05	98.4	inactive
19	HLA-DPA1	1	-0.559	70.8	0.377	71.6	inactive
20	HLA-DPA1	2	1.6	114	1.52	85.2	inactive
21	HLA-DPA1	3	-0.663	68.7	-1.23	106	inactive
22	ZNF577	1	0.704	95.9	0.539	93	inactive
23	ZNF577	2	2.33	128	2.01	84.5	inactive
24	ZNF577	3	2.27	127	1.28	101	inactive

Records listed above with an active call (1):
target gene	reagent	total luciferase, z-score	total luciferase, % of control	luciferase per cell, z-score	viable cells, % of control	call
IFTAP	3	3.65	155	2.02	101	active
